Experimental data taken from PubChem BioAssay AID485349 (National Center for Advancing Translational Sciences (NCATS), 2010).
Hit rate of the full screen: of about 320,000 compounds, about 620 (0.19%) were called active. This list was built around the results that the source calls inconclusive (neither active nor inactive); the mix of calls is not that of the screen. The call rests on the fitted dose curve; in most records, active means well fitted activation curve with a large enough effect; inconclusive means small, poorly fitted or top-dose-only effect; inactive means no such curve, though single readings can be large or run the other way. Potencies beside an inconclusive call are fits to weak or partial responses and may not hold up.

assay: qHTS Assay for Identifying a Potential Treatment of Ataxia-Telangiectasia; details: […] A-T fibroblasts, KAP-1 phosphorylation AlphaLISA, neocarzinostatin DNA damage 30 min before lysis; series mostly up to 57.5 µM; activation: at the top concentration; further: nearly all actives have a fitted effect of over 45% in size; on activation: % of control where 0% means no effect
Text: NIH Chemical Genomics Center [NCGC] NIH Molecular Libraries Probe Centers Network [MLPCN] MLPCN Grant: MH089030-01 Assay Submitter (PI): Wei Zheng and Yosef Shiloh Ataxia-telangiectasia (A-T) is a devastating and progressive disease for which, there is no cure. Although A-T is a multisystem disease, it is stereotyped characterized by its neurological symptoms such as truncal ataxia, due to cerebellar cortical degeneration of the Purkinje and granule cells. Other symptoms of A-T are telangiectasias (dilated blood vessels), primary immunodeficiency, marked sensitivity to ionizing radiation (IR), chromosomal instability and predisposition to cancer. The underlying genetic cause of A-T is null mutations in the ATM (A-T mutated) gene. ATM is a nuclear serine/threonine kinase that functions as a master regulator of the cellular responses to double strand breaks (DSBs) in the DNA. Upon activation by DSBs, ATM phosphorylates a plethora of down stream targets, including KAP-1 on […]. KAP-1 phosphorylation occurs shortly in response to DSBs and mediates global chromatin relaxation, which facilitates DSB repair. To screen for small molecules that will compensate for the loss of ATM in cells derived from A-T patients, we monitored KAP-1 phosphorylation as a readout for ATM-like activity using an AlphaLISA assay.
qHTS Assay Protocol: Step,Parameter,Value,Description 1. Cell Plating, 3 ul, 500 cells/well in OPTI-MEM, 1% FBS, 1% Pen/Strep 2. Incubation, 16-24 hr, 37C, 5% CO2, 95% humidity 3. Library compounds, 23 nl, 76.7 - 0.61uM dilution series final concentration 4. Incubation, 60 min, 37C, 5% CO2, 95% humidity 5. Reagent, 1 ul, 1600 ng/ml NCS in PBS + 0.05% BSA + 0.005% Tween 20 6. Incubation, 30 min, 37C, 5% CO2, 95% humidity 7. Reagent, 1 ul, Premixed detection reagents and lysis buffer 8. Reagent, 1 ul, 0.6% Antifoam A 9. Incubation, 6 hr, 25C, 95% humidity 10. Readout, EnVision, EnVision plate reader. AlphaScreen 1536-well protocol Cells were plated using medium-binding white solid-bottom tissue culture treated Kalypsys plates. Multidrop dispense of 3 uL of […] (hTERT immortalized A-T patient fibroblast cells). Detection reagent and lysis buffer was 3.75nM Rab-a-pKAP1 antibody bound to 75 ng/ul AlphaScreen SA donor bead, 3.75 nM Biot-M-a-KAP1 antibody bound to AlphaLISA protein A acceptor bead, 0.5x protease inhibitor cocktail and 0.25x PerkinElmer lysis buffer. EnVision protocol for 1536-well AlphaScreen read (30ms excitation, 100ms read), about 10 min/plate.
Potency means the concentration at half of the fitted maximal effect.

Question: Which Potency does the source give for COc1ccc(C(=O)O/N=C(\N)c2ccc(Br)cc2)cc1 here?
Answer: inconclusive: 50.1 µM [activator, partial curve, poor fit]

Question: For Cc1ccccc1CN1CCN(CC(=O)NCc2ccccc2)C1=O, which “activation” value is on record?
Answer: inactive: -4.64%

Question: For Cc1cccc(N/N=C(\C=N\N)C(=O)c2ccc(Br)cc2)c1, which Potency is on record?
Answer: inconclusive: 31.6 µM [activator, single point]

Question: With Cc1cc(-c2cc(-c3ccccc3)on2)nc(NC2CCCC2)n1 as the compound, how does the Potency read?
Answer: inconclusive: 39.8 µM [activator, single point]

Question: For C=CCSc1n[nH]c(-c2ccc(OCCCC)cc2)n1, which “activation” value is on record?
Answer: inactive: -0.39%

Question: Which Potency does the source give for COC(=O)C1=CN(Cc2ccc(C)cc2)C=C(C(=O)OC)C1c1ccc(F)c(F)c1 here?
Answer: inconclusive: 39.8 µM [activator, single point]

Question: For COc1ccc(-c2csc(-c3ccc(O)cc3)n2)cc1, which Potency is on record?
Answer: inconclusive: 0.631 µM [activator, full curve, poor fit]

Question: Which Potency does the source give for Cc1nc(-c2ccccc2)sc1C(=O)/C=C/c1ccccc1 here?
Answer: inconclusive: 35.5 µM [activator, single point]

Question: Which Potency does the source give for COc1ccc(/C=C\C(=O)O[C@@H]2C(O)C(O[C@@H]3OC(C)[C@H](O[C@@H]4OCC(O[C@H]5O[C@H](CO)[C@@H](O)C(O)C5O)C(O)C4O)C(O)C3O)[C@H](OC(=O)[C@]34CCC(C)(C)C[C@@H]3C3=CCC5[C@@]6(C)CC(O)C(O[C@@H]7OC(CO)C(O)[C@H](O)[C@H]7O)[C@@](C)(C(=O)O)C6CC[C@@]5(C)[C@]3(CO)CC4)O[C@H]2C)cc1 (stereo not given in full) here?
Answer: inconclusive: 3.16 µM [activator, partial curve]

Question: Which Potency does the source give for O=C(CCS(=O)(=O)c1ccccc1)Nc1nc2cc3c(cc2s1)OCCO3 here?
Answer: inconclusive: 1.26 µM [activator, full curve, poor fit]

Question: Which Potency does the source give for CC(C)(C)OC(=O)N1CCC(C(=O)N[C@H](C(=O)O)c2ccccc2)(c2ccccc2)CC1 here?
Answer: inconclusive: 17.8 µM [activator, partial curve, poor fit]

Question: With CN1C[C@@H]2C(c3ccccc3)C3(c4ccccc4)CC2(C3)[C@H]1c1ccccc1 (stereo not given in full) as the compound, how does the Potency read?
Answer: inconclusive: 35.5 µM [activator, single point]

Question: Which Potency does the source give for CCN1C/C(=C/c2sccc2C)c2nc3ccccc3c(C(=O)O)c2C1 here?
Answer: inconclusive: 0.708 µM [activator, full curve]

Question: For O=C(NC(CC1CCCCC1)C(=O)O)c1ccccc1 (stereo not given), which Potency is on record?
Answer: active: 25.1 µM

Question: With O=C(C(=O)N1CC=C(c2ccccc2)CC1)c1c[nH]c2ccccc12 as the compound, how does the “activation” value read?
Answer: inactive: 2.85%

Question: With CCOc1ccc2nc(NC(=O)Cn3cnc4c3c(=O)n(C)c(=O)n4C)sc2c1 as the compound, how does the Potency read?
Answer: inconclusive: 3.16 µM [activator, full curve, poor fit]

Question: With Cc1ccc(COCCN2CCN(S(=O)(=O)c3ccccc3)CCC2=O)cc1 as the compound, how does the Potency read?
Answer: inconclusive: 39.8 µM [activator, single point]

Question: With CC(C)(C)c1nc(-c2ccccc2)nc2c1OCCC2 as the compound, how does the Potency read?
Answer: inconclusive: 35.5 µM [activator, single point]

Question: Which Potency does the source give for Cc1ccc(S(=O)(=O)c2cc3ccc(O)cc3oc2=O)cc1C here?
Answer: active: 20 µM

Question: Which Potency does the source give for CCCCc1cc(=O)oc2c(CN3CCCC3)c(O)c(Cl)cc12 here?
Answer: active: 22.4 µM

Question: For CC(C)C(NS(=O)(=O)c1cccc2nsnc12)C(=O)NCc1ccco1 (stereo not given), which Potency is on record?
Answer: inconclusive: 0.282 µM [activator, full curve, poor fit]

Question: With Cc1cccc(N2CCN(C(=O)c3cccc(N4C(=O)C5C6C=CC(C6)C5C4=O)c3)CC2C)c1 (stereo not given) as the compound, how does the “activation” value read?
Answer: inactive: 2.56%

Question: For c1ccc(-c2ccc(CN3C[C@@H]4C(c5ccccc5)C5(c6ccccc6)CC4(C5)[C@H]3c3ccccc3)cc2)cc1 (stereo not given in full), which Potency is on record?
Answer: inconclusive: 39.8 µM [activator, single point]

Question: For CC1(C)CC(=O)C=C(NC2=CC3OC(c4ccccc4)OCC3OC2=O)C1 (stereo not given), which Potency is on record?
Answer: inconclusive: 28.2 µM [activator, partial curve]

Question: With CCOCCCNC(=O)c1cn(CC(C)C)c(=O)c2c1c1ccccc1n2C as the compound, how does the Potency read?
Answer: inconclusive: 17.8 µM [activator, partial curve]

Question: For CN1CCN(Cc2nc(N)nc(Nc3ccc4c(c3)OCCO4)n2)CC1, which Potency is on record?
Answer: inconclusive: 0.316 µM [activator, full curve]

Question: With CC#CC[N+](C)(C)CC(=O)c1ccccc1 as the compound, how does the Potency read?
Answer: inconclusive: 3.16 µM [activator, partial curve]

Question: Which Potency does the source give for CCCc1cc(C(=O)Nc2cc(OC)c(Cl)cc2OC)no1 here?
Answer: inconclusive: 0.631 µM [activator, partial curve, poor fit]

Question: For CCOc1ccc2nc(NCCCNS(=O)(=O)c3ccccc3)c(C#N)cc2c1, which Potency is on record?
Answer: inconclusive: 31.6 µM [activator, single point]

Question: With Cc1ccc2nc3c(cc(C(=O)NC4CCS(=O)(=O)C4)n3Cc3ccccc3)c(=O)n2c1 (stereo not given) as the compound, how does the Potency read?
Answer: active: 31.6 µM

Question: For O=C(CCCC(=O)N1CCCC1)N1CCCC1, which Potency is on record?
Answer: inconclusive: 2.51 µM [activator, partial curve, poor fit]

Question: Which Potency does the source give for Cc1[nH]c2c(C)cccc2c1CN1CCC(CO)(Cc2ccccc2)CC1 here?
Answer: inconclusive: 0.794 µM [activator, full curve, poor fit]

Question: Which Potency does the source give for Cc1ccc2c(c1)sc(=NC(=O)C1CC1)n2C here?
Answer: inconclusive: 0.708 µM [activator, full curve, poor fit]

Question: For O=C(O)c1ccc(-c2nc3ccccc3s2)o1, which Potency is on record?
Answer: active: 4.47 µM

Question: With COc1ccc(-c2cc(-c3cccs3)nc3sc(C#N)c(N)c23)cc1 as the compound, how does the Potency read?
Answer: inconclusive: 20 µM [activator, partial curve]

Question: With Cc1noc(C)c1CSCC(=O)N(C)CC(=O)Nc1ccccc1Br as the compound, how does the “activation” value read?
Answer: inactive: 11.6%

Question: For CCOC(=O)C1=C(O)/C(=C\c2ccc(O)c(OCC)c2)N=C1C, which Potency is on record?
Answer: inconclusive: 1.26 µM [activator, full curve, poor fit]

Question: Which Potency does the source give for CC1(C)CC2(CCCN(C(=S)Nc3ccccc3)C2)CCO1 (stereo not given) here?
Answer: active: 20 µM

Question: With O=C(Nc1ccc(-c2nc3cccnc3s2)cc1)c1cccnc1Cl as the compound, how does the Potency read?
Answer: active: 14.1 µM

Question: Which Potency does the source give for Cc1cc(C)n2nc(SCC(=O)N3CCCC3)nc2n1 here?
Answer: inconclusive: 39.8 µM [activator, single point]
